{"source": "paper PMC10810426", "key": {"[1]": {"target": "T1, NUP62 (mouse (endogenous in NIH3T3 and BMDCs)) (UniProt Q63850)", "T1 sequence": "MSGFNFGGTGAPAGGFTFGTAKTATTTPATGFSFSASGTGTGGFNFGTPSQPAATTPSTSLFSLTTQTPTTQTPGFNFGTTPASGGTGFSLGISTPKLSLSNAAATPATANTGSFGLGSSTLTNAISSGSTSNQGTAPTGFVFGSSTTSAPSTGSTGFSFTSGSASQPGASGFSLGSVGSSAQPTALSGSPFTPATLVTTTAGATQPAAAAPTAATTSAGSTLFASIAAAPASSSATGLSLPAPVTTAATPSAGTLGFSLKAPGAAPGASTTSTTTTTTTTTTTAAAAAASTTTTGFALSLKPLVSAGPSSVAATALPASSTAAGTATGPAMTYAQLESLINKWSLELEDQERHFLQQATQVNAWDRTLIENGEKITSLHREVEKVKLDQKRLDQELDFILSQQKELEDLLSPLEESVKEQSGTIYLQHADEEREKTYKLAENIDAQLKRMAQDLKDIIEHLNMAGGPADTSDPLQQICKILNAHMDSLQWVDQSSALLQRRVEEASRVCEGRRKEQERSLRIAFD", "assay": "proximity ligation; Duolink PLA with anti-MLV CA (p30, R187) and anti-NUP358 or anti-NUP62 antibodies in BMDCs infected with MLV (MOI = 1) at 4 hpi; fixed, permeabilised cells"}, "[2]": {"target": "T1, NUP62 (mouse (endogenous in NIH3T3 and BMDCs))", "assay": "proximity ligation; Duolink PLA with anti-MLV CA (p30, R187) and anti-NUP358 or anti-NUP62 antibodies in NIH3T3 cells infected with MLV (MOI = 1) at 4 hpi; fixed, permeabilised cells"}}, "note": "Results are given in words; binding and its absence hold for the method and conditions named. Binding seen in cells or lysates may run through a third protein. Binding can be weak; no strength is given."}
{"substance": "Moloney MLV capsid (CA) of incoming virus", "values": [{"measurement": "binding", "setting": "[1]", "value": "binds"}, {"measurement": "binding", "setting": "[2]", "value": "binds"}]}
